# Laboratory results: article PMC12040169 (PLOS Biology, 2025)
# The list shows a part of the results.
# System: T1, CTL2-GFP (C. trachomatis L2/434/Bu, GFP-expressing)
# T1 construct: L2/434/Bu, GFP-expressing
# Set-up: species or system HeLa; Intracellular C. trachomatis growth in HeLa cells, bulk GFP fluorescence relative to DMSO
# Conditions: bulk GFP, single well; 28.5 h, 10 µM; inhibitor
row,Structure (SMILES),% of control remaining
1,CCOC(=O)N/N=C1\CCSc2sccc21 [CBK006300],86.362%
2,Clc1ccccc1CN1CCC(n2cnc3cccnc32)CC1 [CBK283967],93.3447%
3,CCOc1cc(OCC)cc(C(=O)N2CCC3(CC2)CC(=O)c2ccc(OCC)cc2O3)c1 [CBK168014],112.196%
4,CC(=O)N(C)c1nc(-c2ccccc2C)ccc1C(=O)N(C)C [CBK106350],109.04%
5,COc1ccc(C(=O)Nc2cccnc2N2CCNCC2)cc1 [CBK029421T],96.521%
6,CCc1nn(CC(=O)N2CCCCC2)c(=O)c2cc3ccsc3n12 [CBK284119],113.939%
7,O=C(O)c1csc(S(=O)(=O)Nc2ccccc2C(=O)Nc2ccc3c(c2)OCO3)c1 [CBK295655],132.702%
8,CC(C)C(CO)NC(=O)C1(Cc2ccc(-c3ccc(F)c(F)c3)cc2)CCOCC1 (centres unmarked) [CBK286525],102.245%
9,CC(C)(C)c1n[nH]c(C2CN(C(=O)CCc3ccco3)CCO2)n1 (centres unmarked) [CBK305204],150.591%
10,CCOc1ccc(NC(=O)CSc2nc3nc(C)cc(C)n3n2)cc1 [CBK268278],88.8211%
11,Cc1cc(C(=O)CSc2nc(=O)cc(O)n2CC(C)C)c(C)n1C [CBK295649],132.696%
12,Cc1conc1C(=O)N1CCCCC1CN1CCOCC1 (centres unmarked) [CBK304771],86.9341%
13,CCOC(=O)c1sc(-c2ccc(Br)cc2)nc1O [CBK075087],74.0288%
14,COc1ccc(CNc2nc(C)n[nH]2)cc1Cl [CBK288036],158.251%
15,CCOC(=O)c1cccc(NS(=O)(=O)c2cc(Br)ccc2OC)c1 [CBK034336],99.623%
16,CC(C)(CC(=O)O)CC(=O)Nc1ccc(-c2nc3ccccc3s2)cc1 [CBK299796],91.0921%
17,O=C(N/N=C\c1ccccc1C(F)(F)F)c1ccc(=O)[nH]n1 [CBK263389],113.73%
18,O=C(O)CCn1ncc2ccccc21 [CBK262257],99.3226%
19,CC(C)(C)c1csc(N2CCSCC2)n1 [CBK021950],100.876%
20,COc1ccccc1OCCNC1CCc2cc(Cl)ccc2C1 (centres unmarked) [CBK013067C],109.485%
21,O=C(NC(Cc1ccsc1)c1ccccn1)c1ccc(=O)[nH]c1 (centres unmarked) [CBK285272],90.8312%
22,O=C(COC(=O)C1CCC(N2C(=O)c3ccccc3C2=O)CC1)c1ccc(-c2ccccc2)cc1 (centres unmarked) [CBK264789],133.254%
23,Cc1nc(C)c(C(=O)NCCN2CCCC2=O)s1 [CBK282222],117.672%

# Given with tabs: 2 of the compounds above
row	Structure (SMILES)	% of control remaining
7	O=C(O)c1csc(S(=O)(=O)Nc2ccccc2C(=O)Nc2ccc3c(c2)OCO3)c1 [CBK295655]	132.702%
8	CC(C)C(CO)NC(=O)C1(Cc2ccc(-c3ccc(F)c(F)c3)cc2)CCOCC1 (centres unmarked) [CBK286525]	102.245%
